Laboratory results as given in paper PMC12311512.
Results are given in words; binding and its absence hold for the method and conditions named. Binding seen in cells or lysates may run through a third protein. Some results given as binding are weak or reduced against the parent protein; the word gives no strength.

Chains of the proteins cited; added tags and fusions are not shown.
UniProt Q9UKB1: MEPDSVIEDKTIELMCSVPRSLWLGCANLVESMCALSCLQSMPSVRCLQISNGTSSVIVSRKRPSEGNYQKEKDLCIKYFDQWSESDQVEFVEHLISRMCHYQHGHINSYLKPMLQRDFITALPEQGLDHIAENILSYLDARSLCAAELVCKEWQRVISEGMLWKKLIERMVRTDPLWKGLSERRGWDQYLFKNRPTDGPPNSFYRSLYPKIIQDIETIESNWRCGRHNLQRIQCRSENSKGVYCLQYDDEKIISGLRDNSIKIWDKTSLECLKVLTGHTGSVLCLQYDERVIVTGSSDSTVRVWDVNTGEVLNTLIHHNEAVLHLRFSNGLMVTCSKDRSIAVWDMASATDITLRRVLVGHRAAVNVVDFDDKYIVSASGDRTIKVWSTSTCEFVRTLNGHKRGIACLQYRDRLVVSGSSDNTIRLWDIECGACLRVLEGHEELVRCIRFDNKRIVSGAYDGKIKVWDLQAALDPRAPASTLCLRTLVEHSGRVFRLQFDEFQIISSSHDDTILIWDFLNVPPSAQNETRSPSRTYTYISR

Molecular target: F-box and tryptophan-aspartic (WD) repeat domain containing 11 (FBXW11) (human (endogenous in A2780 and UWB1.289)) (UniProt Q9UKB1)
Test: co-IP; lysates of A2780 and UWB1.289 cells (1,000 μg supernatant) incubated overnight at 4 °C with protein A/G magnetic beads carrying anti-FBXW11 or control IgG; eluate blotted for S100A11

- binding: binds
B1: S100 calcium binding protein A11 (S100A11) (protein, UniProt P31949 1-105)
chain: MAKISSPTETERCIESLIAVFQKYAGKDGYNYTLSKTEFLSFMNTELAAFTKNQKDPGVLDRMMKKLDTNSDGQLDFSEFLNLIGGLAMACHDSFLKAVPSQKRT
